Source: doi:10.1101/309765
Results are given in words; binding and its absence hold for the method and conditions named. In cells and extracts the contact can be indirect. Some results given as binding are weak or reduced against the parent protein; the word gives no strength.

Amino acid sequences for entries named in this document (tags omitted).
UniProt P98170, whole entry: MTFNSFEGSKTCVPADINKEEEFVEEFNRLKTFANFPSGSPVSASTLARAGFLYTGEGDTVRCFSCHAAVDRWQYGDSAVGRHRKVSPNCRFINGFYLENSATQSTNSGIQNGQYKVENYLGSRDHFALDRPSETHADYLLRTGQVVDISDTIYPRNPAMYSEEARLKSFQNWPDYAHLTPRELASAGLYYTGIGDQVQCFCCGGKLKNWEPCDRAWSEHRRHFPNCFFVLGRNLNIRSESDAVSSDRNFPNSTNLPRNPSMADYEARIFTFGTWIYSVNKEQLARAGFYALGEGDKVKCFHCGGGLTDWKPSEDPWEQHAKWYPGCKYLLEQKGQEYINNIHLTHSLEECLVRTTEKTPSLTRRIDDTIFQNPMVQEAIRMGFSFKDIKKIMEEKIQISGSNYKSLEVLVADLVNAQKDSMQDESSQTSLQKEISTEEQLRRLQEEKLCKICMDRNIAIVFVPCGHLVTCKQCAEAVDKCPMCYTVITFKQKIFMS
UniProt P08047, whole entry: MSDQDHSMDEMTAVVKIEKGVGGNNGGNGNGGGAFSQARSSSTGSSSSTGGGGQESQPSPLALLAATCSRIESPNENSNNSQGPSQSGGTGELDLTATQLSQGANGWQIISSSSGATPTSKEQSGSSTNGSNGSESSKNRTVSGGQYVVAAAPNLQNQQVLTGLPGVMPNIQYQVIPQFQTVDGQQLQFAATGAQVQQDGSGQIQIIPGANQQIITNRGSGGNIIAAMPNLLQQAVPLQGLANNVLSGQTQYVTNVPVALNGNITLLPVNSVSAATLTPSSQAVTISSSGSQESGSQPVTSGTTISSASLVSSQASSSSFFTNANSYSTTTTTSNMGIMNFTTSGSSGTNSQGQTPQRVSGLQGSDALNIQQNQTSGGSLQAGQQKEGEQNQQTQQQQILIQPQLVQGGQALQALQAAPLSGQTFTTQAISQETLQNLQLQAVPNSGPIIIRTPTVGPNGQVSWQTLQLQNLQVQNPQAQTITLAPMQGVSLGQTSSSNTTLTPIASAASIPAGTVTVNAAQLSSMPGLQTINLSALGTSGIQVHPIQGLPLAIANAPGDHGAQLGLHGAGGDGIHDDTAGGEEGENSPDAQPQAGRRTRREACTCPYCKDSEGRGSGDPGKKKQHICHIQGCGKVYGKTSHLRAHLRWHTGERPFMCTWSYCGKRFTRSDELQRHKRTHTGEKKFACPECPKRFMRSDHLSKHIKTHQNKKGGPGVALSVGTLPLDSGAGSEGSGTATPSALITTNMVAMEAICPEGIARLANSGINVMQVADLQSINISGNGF

Legend:
[1] = target: HA-tagged XIAP (X-linked inhibitor of apoptosis protein) (human) (UniProt P98170); experiment: co-IP
[2] = target: GFP-tagged Sp1 (human) (UniProt P08047); experiment: co-IP

binding [1]	binding [2]	Substance
binds		GFP-tagged Sp1 (from UniProt P08047 1-785)
	binds	HA-tagged XIAP (X-linked inhibitor of apoptosis protein) (from UniProt P98170 1-497)
binds		Sp1 (endogenous) (from UniProt P08047 1-785)
